# Measured values: US12250946B2, “Antifungal composition having excellent antifungal activity even at low temperature” (Korea University Research and Business Foundation, priority 2020, dated 2025)
# Some of these results come from one statement about several compounds together.
# System: Candida albicans biofilms
# Assay: Antifungal activity of antifungal compositions at low temperature (biofilm on stainless steel coupons)
# Format: cell-based
# Settings: 5° C., 5 minutes treatment; FIG. 2
structure (smiles),measurement,value
"Cc1ccc(C(C)C)cc1O [compound 5, carvacrol]",inhibitory activity on Candida albicans biofilms,less than 0.50 log CFU/cm^2
